Assay results reported in article PMC6902597.
No constants are given. Whether binding was seen depends on the method and setting. In cells and extracts the contact can be indirect. Some binding calls cover weakened binding; strength is not graded here. Tags and fused reporters may be left off the sequences shown.

Amino acid sequences for entries named in this document (tags omitted).
UniProt Q61473: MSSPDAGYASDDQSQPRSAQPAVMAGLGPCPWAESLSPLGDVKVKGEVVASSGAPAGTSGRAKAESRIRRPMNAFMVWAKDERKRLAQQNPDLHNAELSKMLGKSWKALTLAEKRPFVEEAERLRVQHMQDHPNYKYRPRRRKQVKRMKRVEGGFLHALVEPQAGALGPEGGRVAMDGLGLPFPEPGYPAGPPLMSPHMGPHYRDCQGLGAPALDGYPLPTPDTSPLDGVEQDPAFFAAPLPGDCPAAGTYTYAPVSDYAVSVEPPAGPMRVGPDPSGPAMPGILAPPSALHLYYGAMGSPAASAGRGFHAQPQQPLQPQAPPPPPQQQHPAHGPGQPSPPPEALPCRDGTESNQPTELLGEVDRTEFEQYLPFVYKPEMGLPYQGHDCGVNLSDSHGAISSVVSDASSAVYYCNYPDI

Tests used:
[1] = molecular target: Myc-tagged Sox17 (sex-determining region Y-box 17) (UniProt Q61473); assay: co-IP; 293T cells co-transfected for 48 h; lysis buffer 20 mM Tris pH 7, 0.5% Nonidet-P40, 25 mM NaCl; antibody or IgG and protein G-agarose overnight at 4 °C; co-IP and reverse co-IP; also with DNAase
Myc-Sox17, Q61473 [2] = assay: co-IP; TPC-1 cells transfected with Flag-TRIM30, Myc-Sox17 or HA-β-catenin for 48 h; Sox17/β-catenin co-IP with TRIM30 overexpressed; settings: remark: other sources report otherwise
Myc-Sox17, Q61473 [3] = assay: co-IP; TPC-1 cells transfected with the indicated plasmids for 24 h; wild-type cells without rhIL-22, and TRIM30-/- cells with or without 50 ng/ml rhIL-22 for 24 h; settings: remark: other sources report otherwise

B1: Flag-tagged TRIM30 (tripartite-motif protein 30, TRIM30α) (protein, UniProt P15533 1-496)
chain: MASSVLEMIKEEVTCPICLELLKEPVSADCNHSFCRACITLNYESNRNTDGKGNCPVCRVPYPFGNLRPNLHVANIVERLKGFKSIPEEEQKVNICAQHGEKLRLFCRKDMMVICWLCERSQEHRGHQTALIEEVDQEYKEKLQGALWKLMKKAKICDEWQDDLQLQRVDWENQIQINVENVQRQFKGLRDLLDSKENEELQKLKKEKKEVMEKLEESENELEDQTELVRDLISDVEHHLELSTLEMLQGANCVLRRSQSLSLQQPQTVPQKRKRTFQAPDLKGMLQVYQGLMDIQQYWVHMTLHARNNAVIAINKEKRQIQYRSYNTVPVSEIYHLGVLGYPALSSGKHYWEVDISRSDAWLLGLNDGKCAQPQLHSKEEMGIKKNLHSQIKQNVLFQPKCGYWVIGMKNPSVYKAFDECSITHNSSILVISLPDRPSRVGVFLDRKAGTLSFYDVSNCGALIYRFYDPAFPVEVYPYFNPMKCSEPMTICGPPS
binding [1]: binds

B2: HA-β-catenin, Q02248 1-781 (protein)
chain: MATQADLMELDMAMEPDRKAAVSHWQQQSYLDSGIHSGATTTAPSLSGKGNPEEEDVDTSQVLYEWEQGFSQSFTQEQVADIDGQYAMTRAQRVRAAMFPETLDEGMQIPSTQFDAAHPTNVQRLAEPSQMLKHAVVNLINYQDDAELATRAIPELTKLLNDEDQVVVNKAAVMVHQLSKKEASRHAIMRSPQMVSAIVRTMQNTNDVETARCTAGTLHNLSHHREGLLAIFKSGGIPALVKMLGSPVDSVLFYAITTLHNLLLHQEGAKMAVRLAGGLQKMVALLNKTNVKFLAITTDCLQILAYGNQESKLIILASGGPQALVNIMRTYTYEKLLWTTSRVLKVLSVCSSNKPAIVEAGGMQALGLHLTDPSQRLVQNCLWTLRNLSDAATKQEGMEGLLGTLVQLLGSDDINVVTCAAGILSNLTCNNYKNKMMVCQVGGIEALVRTVLRAGDREDITEPAICALRHLTSRHQEAEMAQNAVRLHYGLPVVVKLLHPPSHWPLIKATVGLIRNLALCPANHAPLREQGAIPRLVQLLVRAHQDTQRRTSMGGTQQQFVEGVRMEEIVEGCTGALHILARDVHNRIVIRGLNTIPLFVQLLYSPIENIQRVAAGVLCELAQDKEAAEAIEAEGATAPLTELLHSRNEGVATYAAAVLFRMSEDKPQDYKKRLSVELTSSLFRTEPMAWNETADLGLDIGAQGEALGYRQDDPSYRSFHSGGYGQDALGMDPMMEHEMGGHHPGADYPVDGLPDLGHAQDLMDGLPPGDSNQLAWFDTDL
binding (Myc-Sox17, Q61473 [2]): binds | binding (Myc-Sox17, Q61473 [3]): binds

B3: Flag-TRIM8 (protein, UniProt Q99PJ2 1-551)
chain: MAENWKNCFEEELICPICLHVFVEPVQLPCKHNFCRGCIGEAWAKDSGLVRCPECNQAYNQKPGLEKNLKLTNIVEKFNALHVEKPPTALHCVFCRRGPPLPAQKVCLRCEAPCCQSHVQTHLQQPSTARGHLLVEADDVRAWSCPQHNAYRLYHCEAEQVAVCQYCCYYSGAHQGHSVCDVEIRRNEIRKMLMKQQERLEEREQDIEDQLYKLESDKRLVEEKVSQLKEEVRLQYEKLHQLLDEDLRQTVEVLDKAQAKFCSENAAQALHLGERMQEAKKLLGSLQRLFDKTEDVGFMKNTKSVKILMDRTQTCTGSSLSPPKIGHLNSKLFLNEVAKKEKQLRKMLEGPFSTPVPFLQSVPLYPCGVNSSGAEKRKHSTAFPEASFLETSSGPVGGQYGAAGTASSEGQSGQPLGPCSSTQHLVALPGGTQPVHSSPVFPPSQYPNGSTTQQPMLPQYGGRKILVCSVDNCYCSSVANHGGHQPYPRSGHFPWTVPSQEYSHPLPPTPSVPQSLPGLAVRDWLDASQQPGHQDFYRVYGQPSTKHYVTS
binding [1]: no binding
